Test results published in article PMC9949351, “Chromatin localization of nucleophosmin organizes ribosome biogenesis” (Molecular cell, 2022).
Results are given in words; binding and its absence hold for the method and conditions named. For some of these results: In cells and extracts the contact can be indirect. Some entries that bind do so weakly or less than the wild type. Where a sequence is shown, tags or fusion partners need not be part of it.

Key:
[1] = biological target: T1, endogenously FLAG-tagged Fkbp39 (S. pombe) (UniProt O74191); experiment: affinity purification with cryo-EM of the eluted particles; particles pulled down with Fkbp39-FLAG from S. pombe; no clear density for Fkbp39 in the maps
T1 sequence: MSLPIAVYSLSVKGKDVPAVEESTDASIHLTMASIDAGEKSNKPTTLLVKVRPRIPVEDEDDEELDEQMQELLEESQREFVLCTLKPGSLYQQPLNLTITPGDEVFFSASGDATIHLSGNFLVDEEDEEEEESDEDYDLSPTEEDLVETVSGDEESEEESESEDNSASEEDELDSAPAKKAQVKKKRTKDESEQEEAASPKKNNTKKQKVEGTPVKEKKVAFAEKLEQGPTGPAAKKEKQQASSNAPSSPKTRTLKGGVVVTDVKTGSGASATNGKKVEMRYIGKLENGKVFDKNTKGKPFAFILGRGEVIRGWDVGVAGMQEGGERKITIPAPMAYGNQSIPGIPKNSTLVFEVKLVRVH

FLAG-Ytm1 (S. pombe) = biological target: T2, FLAG-Ytm1 (S. pombe) (UniProt Q9URY0); experiment: cryo-EM structure; nascent 60S purified through FLAG-Ytm1 from wild-type and fkbp39Δ S. pombe cells; maps at 2.8 to 3.8 Å
T2 sequence: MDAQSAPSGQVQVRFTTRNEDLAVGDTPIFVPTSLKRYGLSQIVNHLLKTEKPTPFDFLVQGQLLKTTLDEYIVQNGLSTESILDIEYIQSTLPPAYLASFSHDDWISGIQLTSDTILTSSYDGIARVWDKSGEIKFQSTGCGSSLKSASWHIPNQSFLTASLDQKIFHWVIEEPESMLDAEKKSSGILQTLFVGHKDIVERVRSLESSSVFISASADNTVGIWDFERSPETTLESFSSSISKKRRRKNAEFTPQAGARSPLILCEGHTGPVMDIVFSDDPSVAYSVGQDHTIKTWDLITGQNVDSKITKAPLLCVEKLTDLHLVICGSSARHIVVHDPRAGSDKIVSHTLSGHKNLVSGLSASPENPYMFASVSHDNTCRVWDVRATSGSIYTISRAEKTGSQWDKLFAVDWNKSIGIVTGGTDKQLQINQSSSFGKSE

[2] = biological target: T1, endogenously FLAG-tagged Fkbp39 (S. pombe); experiment: co-IP; in vivo: S. pombe lysate with nuclease, anti-FLAG M2 affinity gel, 100 mM NaCl, 5 mM MgCl2, 50 mM Tris pH 7.5, 0.1% Nonidet P40, 3XFLAG peptide elution, western blot (anti-FLAG, anti-HA)

B1: Ytm1 (protein, UniProt Q9URY0 1-440)
chain: MDAQSAPSGQVQVRFTTRNEDLAVGDTPIFVPTSLKRYGLSQIVNHLLKTEKPTPFDFLVQGQLLKTTLDEYIVQNGLSTESILDIEYIQSTLPPAYLASFSHDDWISGIQLTSDTILTSSYDGIARVWDKSGEIKFQSTGCGSSLKSASWHIPNQSFLTASLDQKIFHWVIEEPESMLDAEKKSSGILQTLFVGHKDIVERVRSLESSSVFISASADNTVGIWDFERSPETTLESFSSSISKKRRRKNAEFTPQAGARSPLILCEGHTGPVMDIVFSDDPSVAYSVGQDHTIKTWDLITGQNVDSKITKAPLLCVEKLTDLHLVICGSSARHIVVHDPRAGSDKIVSHTLSGHKNLVSGLSASPENPYMFASVSHDNTCRVWDVRATSGSIYTISRAEKTGSQWDKLFAVDWNKSIGIVTGGTDKQLQINQSSSFGKSE
- binding [1]: binds

B2: Erb1 (protein, UniProt O74399 1-740)
chain: METGMNRKRSRSKRANSNVGVEKDKEKEKSKGVSNVPNEVETESSSHEPSFKKDVDEEIPSLTAELSEEEEGEYSSESGRSTPELSPDDFEDADDEEEFEEIDAGYSSDSSTEDVAPGLYESPYDENLYINYDIDGKKITRPATPAALDSLIASIDKDKGWTGIVDPMTGKPVNLTTEELGLLKRLAQSEIPDENFDPYPDYDDFFTNTVRETPLSSAPEPKRRFAPSKHEQKRILQLAYAIRKGRILTSEQRAERERESQSNYADHDLWADDDQATVNQRKLDYAPAPKLPPPSHEESYNPPEEYLKQSSDFPKKYKSLRVVPAYSNLIKEKFERCLDLYLAPRVRRTKLNIDPESLLPKLPTPSELRPFPTRCTNVFIGHKGRVRCLSVHVSGNWLASGGDDGVLRIWEVMTGRCVWKCSLDSFGNAHNIDSDEDAVNESLSHSTKSSIIQSLAWGPLSDSPVLAVAVDETVYFITPPIFSDEQIEASKELFTSAPYQESSAIWRRGAKQSLQLHGGIVHATVSTPSSIKSLSWHRRGDYLATSSPTSSSQAVLIHQLSRGASQSPFSKSKGSVQAVTFHPTMPYLLVATQRYVRIYNLVKQELVKTLLTGVKWVSSLSVHSSGDHVIIGSYDKRLCWFDLDFSSKPYKNLRYHSRALRDVSYHPSLPLFCSGSDDGDVQVFHGRVYSDLLANPLIVPLKILRNHKVVDNVGVLSTCWHPKEAWLFSAGAGGEIRMWT
- binding [1]: binds
- binding (FLAG-Ytm1 (S. pombe)): binds

B3: Ppp1 (protein, UniProt O60164 1-607)
chain: MARVKQKGKAGAARIYITRNQALKKLQLTLADFRRICILKGVYPREPKNKKKANKGSTAPVTFYYTKDIQYLLHEPIVQKFREYKVFARKLSKALGKGELETAKRLEARKPTYSLDHIIKERYPTFHDALKDIDDALSMLFLFSTMPVTDKIGAATVANCERLCAEFQHYVIRSNSLRKAFLSIKGIYYQAEIFGEQITWIVPYKFAQSVPTDVDFRIMHTFLEFYQALMGFVNFKLYNTLGLRYPPKIDVAKSESAAGLAAYELEESSSLPAIVHGNNKNARKNIATLKSKIRDIVNSDANVVEQSEKTTEDADEEPETEENLDEFKPADGADNEDSKSLVSHISSSNTSLFSNFTFFLSREVPRFSLEFVIRAFGGKVGWDPILGSGSPFSESDPVITHHICDRPHISQKYEGRIYIQPQWVYDSINKGILERTDLYACGATLPPHLSPFVKVGENDYDPEAELSAEENDDVSEALDDNISGEAVPISKKNDEPENVEQIDDAEEEDLEHQRELEAEAGGVAYSEYVKQNSKSAKKTKKRQRDTLTAEEKEEKEAKELSKMMMSNKQRKLYSKLKNENSKNENYNNALRNRKRDIEKRKKLKVEN
- binding [1]: binds
- binding (FLAG-Ytm1 (S. pombe)): binds

B4: Rlp7 (protein, UniProt P17937 1-249)
chain: MAEDAPVVQQTMLEPEVLLKKRKVNERTRKERVEQAIAKKEAQKKNRKETFKRAETFINNYRQRERERIRLNRSAKNKGDIFVPDETKLLFVIRIAGVKNMPPKIRKVLRLLRLSRINNAVFVRNNKAVAQMLRIVEPYVMYGIPNLHSVRELIYKRGFGKINGQRIALSDNALIEEALGKYDVISIEDIIHEIYNVGSHFKEVTKFLWPFTLTPVKHSLMEKKVKHFNEGRKAGYCGEEINELIKKQV
- binding (FLAG-Ytm1 (S. pombe)): binds

B5: Fkbp41 (natural protein, S. pombe, UniProt Q10175 1-362, looked up)
chain: MSKEETLYSVKVDQERVPLFDEDFYKGFRSELSVRFTMAALDPRAKSNDAVTVNVITRLEHPEEDGEESDEELFQEEKFTLCTLKKGSVYQQPIDIIFSPGEEVFFERVGGDIPVYLSGTCIITNIPEEEDSSDLENDFLYGADEFSSDEEEMDDISVTSSEEEEEENGARIEELNSDEEDAEQAEEEILEKPVPKDEVAEKHSKDKLKKEEKEKKTAVDVSDSVNGKKRKTEPAGEGEQTEKKSKSTKTYPKQVLEGNVTVQDKVKGDGPAAKRKKRVSMRYIGRLTNGKVFDKNITGKPFTFNLGLEEVIKGWDVGIVGMQVGGERTIHIPAAMAYGSKRLPGIPANSDLVFDVKLLAVN
notes: Fkbp41, S. pombe, SPAC27F1.06c; cloned into a pETDuet vector behind 6xHis-SUMO and an HRV-3C site; also called nucleophosmin-like protein Fkbp41; SPAC27F1.06c; source: E. coli Rosetta (DE3), purified (Ni Sepharose, tag removed, Q ion exchange, at times SEC); not shown: 6xHis, N-terminal, cleaved; SUMO, N-terminal, cleaved
- binding [2]: binds
